For at least one compound, name, drawing or mass did not settle the structure.
Experiments:
[1] = test system: wild-type hepatitis B virus; experiment: Antiviral drug treatment of HBV transgenic mice with wild-type HBV genome, amount of virus in serum; format: in vivo, mouse
Text: (§1) According to the present invention, the drug resistant HBV genome is resistant to an antiviral nucleoside analogue, such as adefovir or lamivudine.
(§2) The upper and lower limits of the rectangles in the figure are quartiles, and the horizontal lines within the rectangles indicate the median. Mann-Whitney U test was used for statistical analysis, and p=0.0093, showing the significant differences.

[2] = test system: drug resistant HBV genome; experiment: Antiviral drug treatment of HBV transgenic mice with drug resistant HBV genome, amount of virus in serum; format: in vivo, mouse
Text: as §1, §2

SMILES: Nc1ccn([C@@H]2CS[C@H](CO)O2)c(=O)n1 [lamivudine]
- amount of serum virus after treatment with antiviral drug [1]: decreased by more than a thousand times
- amount of serum virus after treatment with antiviral drug ([2]; mice with drug resistant HBV genome, compared with wild-type HBV genome mice): decreased much less
- decline in amount of virus in serum after drug administration, drug-resistant group vs wild-type group ([2]; oral 100 mg/Kg body weight through feeding tube, before vs 14 days after feeding, strains B00, B13 vs D11, D14, Mann-Whitney p=0.0093): the decline in virus in the drug-resistant group was less than that in the wild-type group

From patent US12349665B2, “Animal model for hepatocellular carcinoma and uses thereof” (TAIPEI VETERANS GENERAL HOSPITAL, priority 2019, dated 2025)
